Patent publication US12448491B2, “Nano-patterend conductive polymer substrate with improved cell alignment, maturity, adhesion, and connectivity and method for manufacturing same” (priority 2022, dated 2025)

How the values were obtained:
[1] = tested on: human-induced pluripotent stem cell-cardiomyocytes (hiPSC-CMs); experiment: Drug screening for hiPSC-CMs on bare and embedded PDMS; format: cell-based
Description: Since pre-clinical studies on rats could not completely predict effects on the human heart, human-induced pluripotent stem cell-cardiomyocytes (hiPSC-CMs) had significant advantages over the use of animal models. To further investigate the responses of different drugs on immature and mature cardiomyocytes in human cells, hiPSC-CMs were cultured.

[2] = tested on: human-induced pluripotent stem cell-cardiomyocytes (hiPSC-CMs); experiment: Comparison of NRVM and hiPSC-CM in drug test (hiPSC-CM); format: cell-based; conditions: human cells
Text: (§1) There are several similarities and differences in the drug response between animal and human cardiomyocytes.

[3] = tested on: neonatal rat ventricular myocytes (NRVMs); experiment: Comparison of NRVM and hiPSC-CM in drug test (NRVM); format: cell-based
Text: as §1

[4] = tested on: cardiomyocytes; experiment: Drug screening on bare and embedded PDMS cantilevers (beat displacement)

beat behavior with increasing dose ([1]; hiPSC-CMs on bare PDMS): irregular beat behavior
contraction behavior at high concentration of drug ([1]; hiPSC-CMs on embedded PDMS): stable contraction behavior
tendency of beat frequency and contraction with increasing drug [2]: decrease the beat frequency
change of contraction force / displacement ([2]; (b) of FIG. 20C): change in displacement was not observed
tendency of beat frequency and contraction with increasing drug ([3]; animal cells): decrease the beat frequency
Compound: Cc1cccc(CCN2CCC(C(=O)c3ccc(NS(C)(=O)=O)cc3)CC2)n1 [E-4031]
change of contraction force / displacement ([3]; animal experiment, (b) of FIG. 20C): reduction of contraction force was observed
effect on contraction force and beating cycle ([4]; bare PDMS as control): a decrease in contraction force, and the beating cycle was irregularly changed as the drug dose increased
effect on contraction force and beating cycle ([4]; cultured on AgNW-embedded PDMS): little change in the beating cycle, and the magnitude of contraction force was not significantly affected
